From the supplement of paper PMC10849652
This is one part of the list.

By UniProt entry, the sequences of proteins in these tests, tags left out. Where a name states a change or a piece, a line headed by the entry shows the natural chain unless it says otherwise.
UniProt Q9BUA3: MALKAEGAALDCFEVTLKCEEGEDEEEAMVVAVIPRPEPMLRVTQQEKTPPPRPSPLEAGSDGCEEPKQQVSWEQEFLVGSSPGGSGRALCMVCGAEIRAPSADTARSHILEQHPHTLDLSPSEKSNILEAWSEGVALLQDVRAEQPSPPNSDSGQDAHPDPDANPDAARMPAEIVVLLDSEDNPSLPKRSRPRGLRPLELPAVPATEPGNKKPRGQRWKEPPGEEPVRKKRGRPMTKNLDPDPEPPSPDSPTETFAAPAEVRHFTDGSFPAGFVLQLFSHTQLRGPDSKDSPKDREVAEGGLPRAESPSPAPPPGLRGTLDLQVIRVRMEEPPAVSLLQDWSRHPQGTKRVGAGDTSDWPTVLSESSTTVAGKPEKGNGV
UniProt P42224: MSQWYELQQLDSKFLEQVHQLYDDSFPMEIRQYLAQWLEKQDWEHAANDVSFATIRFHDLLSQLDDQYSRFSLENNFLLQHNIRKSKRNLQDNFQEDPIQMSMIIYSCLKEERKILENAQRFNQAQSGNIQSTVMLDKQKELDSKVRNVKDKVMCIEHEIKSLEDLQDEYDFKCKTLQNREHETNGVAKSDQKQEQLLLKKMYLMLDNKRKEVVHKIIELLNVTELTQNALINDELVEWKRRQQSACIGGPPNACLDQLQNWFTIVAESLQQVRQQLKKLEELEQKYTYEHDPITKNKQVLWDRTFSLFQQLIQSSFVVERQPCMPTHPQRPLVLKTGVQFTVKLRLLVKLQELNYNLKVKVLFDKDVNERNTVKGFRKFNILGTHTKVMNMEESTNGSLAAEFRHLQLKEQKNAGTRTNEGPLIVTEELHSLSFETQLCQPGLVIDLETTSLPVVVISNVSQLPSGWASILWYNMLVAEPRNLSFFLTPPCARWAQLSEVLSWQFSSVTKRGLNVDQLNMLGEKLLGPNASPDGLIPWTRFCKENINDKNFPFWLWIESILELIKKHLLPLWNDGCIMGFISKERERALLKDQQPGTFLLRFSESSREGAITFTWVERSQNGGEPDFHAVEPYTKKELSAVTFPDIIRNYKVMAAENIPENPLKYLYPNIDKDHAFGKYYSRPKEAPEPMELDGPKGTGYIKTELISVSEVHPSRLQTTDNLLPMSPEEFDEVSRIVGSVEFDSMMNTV
UniProt Q96T58, whole entry, looked up: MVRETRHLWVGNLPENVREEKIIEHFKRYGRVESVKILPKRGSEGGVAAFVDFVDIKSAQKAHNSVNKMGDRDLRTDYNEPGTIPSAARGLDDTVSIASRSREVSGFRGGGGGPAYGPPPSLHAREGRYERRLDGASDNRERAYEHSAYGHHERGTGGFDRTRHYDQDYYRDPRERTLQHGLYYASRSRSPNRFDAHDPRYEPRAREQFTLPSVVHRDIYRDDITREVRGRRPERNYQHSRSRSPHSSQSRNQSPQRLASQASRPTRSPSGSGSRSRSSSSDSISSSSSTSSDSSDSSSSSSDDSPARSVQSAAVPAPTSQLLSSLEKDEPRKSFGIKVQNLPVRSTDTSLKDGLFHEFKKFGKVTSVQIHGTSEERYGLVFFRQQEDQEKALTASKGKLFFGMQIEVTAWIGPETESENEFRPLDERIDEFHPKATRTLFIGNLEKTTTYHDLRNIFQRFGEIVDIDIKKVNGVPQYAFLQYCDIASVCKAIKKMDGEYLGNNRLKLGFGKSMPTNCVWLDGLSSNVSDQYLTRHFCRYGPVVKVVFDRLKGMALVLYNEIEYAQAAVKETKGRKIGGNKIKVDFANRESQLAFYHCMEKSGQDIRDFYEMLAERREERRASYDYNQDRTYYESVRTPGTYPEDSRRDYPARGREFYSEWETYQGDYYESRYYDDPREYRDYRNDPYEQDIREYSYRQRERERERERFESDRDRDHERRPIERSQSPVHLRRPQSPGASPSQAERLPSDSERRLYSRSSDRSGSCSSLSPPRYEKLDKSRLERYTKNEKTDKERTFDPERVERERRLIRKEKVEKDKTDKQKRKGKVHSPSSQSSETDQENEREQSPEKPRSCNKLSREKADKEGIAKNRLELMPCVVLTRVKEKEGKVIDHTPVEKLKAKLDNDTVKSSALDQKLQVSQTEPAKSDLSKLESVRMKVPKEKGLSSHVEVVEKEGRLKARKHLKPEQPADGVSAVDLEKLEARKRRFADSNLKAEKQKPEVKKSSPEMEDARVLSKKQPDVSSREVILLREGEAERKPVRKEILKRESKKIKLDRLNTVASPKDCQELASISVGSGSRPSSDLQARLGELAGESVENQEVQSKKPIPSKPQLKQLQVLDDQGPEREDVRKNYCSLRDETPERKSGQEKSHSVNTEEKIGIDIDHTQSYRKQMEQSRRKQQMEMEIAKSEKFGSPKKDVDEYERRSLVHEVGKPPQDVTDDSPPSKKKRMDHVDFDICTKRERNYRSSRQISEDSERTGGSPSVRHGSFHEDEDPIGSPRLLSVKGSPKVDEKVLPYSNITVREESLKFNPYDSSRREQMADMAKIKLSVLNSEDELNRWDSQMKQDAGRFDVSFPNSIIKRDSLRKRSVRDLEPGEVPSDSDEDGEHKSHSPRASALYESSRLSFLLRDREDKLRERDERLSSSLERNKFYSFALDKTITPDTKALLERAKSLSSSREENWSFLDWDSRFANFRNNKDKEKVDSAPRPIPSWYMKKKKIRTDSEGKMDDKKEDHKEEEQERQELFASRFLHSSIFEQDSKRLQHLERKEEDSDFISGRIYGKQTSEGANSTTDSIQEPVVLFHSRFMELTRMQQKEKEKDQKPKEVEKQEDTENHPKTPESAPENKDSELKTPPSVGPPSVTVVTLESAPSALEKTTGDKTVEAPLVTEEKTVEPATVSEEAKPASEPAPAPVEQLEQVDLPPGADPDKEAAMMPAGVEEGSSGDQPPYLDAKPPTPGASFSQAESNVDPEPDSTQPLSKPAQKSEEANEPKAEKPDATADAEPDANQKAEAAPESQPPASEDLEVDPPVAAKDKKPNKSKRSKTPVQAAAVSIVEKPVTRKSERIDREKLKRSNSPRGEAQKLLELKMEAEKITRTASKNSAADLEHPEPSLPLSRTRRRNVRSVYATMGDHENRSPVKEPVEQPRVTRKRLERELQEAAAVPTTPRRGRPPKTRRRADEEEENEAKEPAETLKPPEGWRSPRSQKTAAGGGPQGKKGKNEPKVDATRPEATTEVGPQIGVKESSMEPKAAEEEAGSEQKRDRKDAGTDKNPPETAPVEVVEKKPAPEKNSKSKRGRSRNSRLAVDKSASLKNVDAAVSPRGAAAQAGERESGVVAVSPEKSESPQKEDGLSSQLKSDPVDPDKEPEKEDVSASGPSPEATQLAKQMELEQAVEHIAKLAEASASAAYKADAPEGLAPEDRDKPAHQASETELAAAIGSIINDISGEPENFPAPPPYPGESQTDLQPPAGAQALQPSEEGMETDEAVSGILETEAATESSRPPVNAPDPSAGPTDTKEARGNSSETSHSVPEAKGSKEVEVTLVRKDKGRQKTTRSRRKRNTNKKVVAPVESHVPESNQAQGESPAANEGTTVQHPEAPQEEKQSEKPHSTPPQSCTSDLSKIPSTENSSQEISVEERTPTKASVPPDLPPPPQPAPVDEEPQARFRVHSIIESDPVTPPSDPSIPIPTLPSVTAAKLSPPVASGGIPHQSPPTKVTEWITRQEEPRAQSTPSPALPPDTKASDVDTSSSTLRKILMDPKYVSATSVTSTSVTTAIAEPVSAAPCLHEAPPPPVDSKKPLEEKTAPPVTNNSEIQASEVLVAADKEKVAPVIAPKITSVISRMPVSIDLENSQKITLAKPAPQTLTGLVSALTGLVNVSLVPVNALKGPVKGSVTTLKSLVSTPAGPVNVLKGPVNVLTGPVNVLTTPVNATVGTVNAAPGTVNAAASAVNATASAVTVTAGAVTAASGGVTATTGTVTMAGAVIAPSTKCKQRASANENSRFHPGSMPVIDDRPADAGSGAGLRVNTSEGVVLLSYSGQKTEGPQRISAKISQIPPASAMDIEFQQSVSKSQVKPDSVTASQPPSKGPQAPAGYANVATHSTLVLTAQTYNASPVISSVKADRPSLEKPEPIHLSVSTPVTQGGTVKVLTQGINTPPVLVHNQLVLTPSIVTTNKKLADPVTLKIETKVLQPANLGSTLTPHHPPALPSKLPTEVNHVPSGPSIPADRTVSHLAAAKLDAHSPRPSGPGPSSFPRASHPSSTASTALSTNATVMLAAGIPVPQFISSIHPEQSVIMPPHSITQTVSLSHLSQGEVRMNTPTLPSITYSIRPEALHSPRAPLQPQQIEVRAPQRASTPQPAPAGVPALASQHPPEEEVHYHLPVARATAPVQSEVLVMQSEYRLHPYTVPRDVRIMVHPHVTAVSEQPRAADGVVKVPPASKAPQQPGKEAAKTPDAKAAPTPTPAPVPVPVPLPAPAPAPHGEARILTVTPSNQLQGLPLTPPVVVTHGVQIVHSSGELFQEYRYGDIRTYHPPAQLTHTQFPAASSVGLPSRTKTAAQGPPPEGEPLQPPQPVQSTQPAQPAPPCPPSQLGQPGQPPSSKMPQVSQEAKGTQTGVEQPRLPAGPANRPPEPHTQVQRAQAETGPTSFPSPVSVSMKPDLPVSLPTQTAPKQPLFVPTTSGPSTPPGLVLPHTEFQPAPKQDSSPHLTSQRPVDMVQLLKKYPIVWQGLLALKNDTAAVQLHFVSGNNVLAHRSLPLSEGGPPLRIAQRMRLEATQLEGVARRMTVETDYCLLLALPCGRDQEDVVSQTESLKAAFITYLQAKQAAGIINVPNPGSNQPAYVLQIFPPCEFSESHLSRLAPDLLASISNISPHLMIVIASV
UniProt Q14849, whole entry, looked up: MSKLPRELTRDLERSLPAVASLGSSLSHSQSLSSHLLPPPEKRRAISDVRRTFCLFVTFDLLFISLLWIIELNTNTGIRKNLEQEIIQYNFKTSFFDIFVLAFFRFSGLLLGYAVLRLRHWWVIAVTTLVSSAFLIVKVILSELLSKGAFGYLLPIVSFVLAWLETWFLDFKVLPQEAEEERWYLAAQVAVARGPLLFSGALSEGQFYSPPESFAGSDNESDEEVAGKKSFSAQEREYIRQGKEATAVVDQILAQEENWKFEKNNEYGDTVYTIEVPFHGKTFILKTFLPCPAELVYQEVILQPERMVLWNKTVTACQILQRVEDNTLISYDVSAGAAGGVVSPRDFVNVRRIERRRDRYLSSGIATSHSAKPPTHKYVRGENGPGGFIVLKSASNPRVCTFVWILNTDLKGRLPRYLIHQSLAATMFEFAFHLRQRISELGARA
UniProt Q9BVQ7: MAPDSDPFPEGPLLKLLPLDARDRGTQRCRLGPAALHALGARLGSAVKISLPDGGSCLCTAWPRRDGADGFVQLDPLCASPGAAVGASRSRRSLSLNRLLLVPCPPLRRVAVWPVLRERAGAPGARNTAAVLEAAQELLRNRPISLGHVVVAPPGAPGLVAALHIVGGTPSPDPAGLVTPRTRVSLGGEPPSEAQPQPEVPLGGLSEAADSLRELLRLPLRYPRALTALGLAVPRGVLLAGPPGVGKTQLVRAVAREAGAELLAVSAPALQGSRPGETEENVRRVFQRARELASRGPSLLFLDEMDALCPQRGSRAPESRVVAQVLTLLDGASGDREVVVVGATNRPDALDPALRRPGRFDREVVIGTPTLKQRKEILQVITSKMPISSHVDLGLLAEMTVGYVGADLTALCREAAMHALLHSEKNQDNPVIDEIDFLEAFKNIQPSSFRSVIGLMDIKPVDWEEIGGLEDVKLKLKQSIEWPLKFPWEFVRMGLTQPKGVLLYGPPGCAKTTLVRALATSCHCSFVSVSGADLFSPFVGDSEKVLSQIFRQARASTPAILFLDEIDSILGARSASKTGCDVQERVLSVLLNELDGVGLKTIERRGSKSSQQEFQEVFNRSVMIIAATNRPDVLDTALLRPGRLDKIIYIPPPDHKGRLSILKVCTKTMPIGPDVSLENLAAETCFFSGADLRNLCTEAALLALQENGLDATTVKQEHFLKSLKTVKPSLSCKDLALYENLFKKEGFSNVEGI
UniProt Q8NEF9: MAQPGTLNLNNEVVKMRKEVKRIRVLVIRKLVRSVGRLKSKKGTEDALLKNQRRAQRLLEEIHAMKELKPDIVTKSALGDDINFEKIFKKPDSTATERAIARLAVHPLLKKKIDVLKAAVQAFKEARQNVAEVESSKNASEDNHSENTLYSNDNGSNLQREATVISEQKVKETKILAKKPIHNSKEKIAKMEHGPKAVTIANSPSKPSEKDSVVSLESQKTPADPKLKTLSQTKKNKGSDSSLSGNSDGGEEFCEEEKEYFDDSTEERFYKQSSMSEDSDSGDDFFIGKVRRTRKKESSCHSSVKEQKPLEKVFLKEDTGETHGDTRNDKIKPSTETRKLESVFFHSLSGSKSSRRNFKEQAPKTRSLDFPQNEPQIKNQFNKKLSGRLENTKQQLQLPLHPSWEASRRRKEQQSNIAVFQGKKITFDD
UniProt P09132: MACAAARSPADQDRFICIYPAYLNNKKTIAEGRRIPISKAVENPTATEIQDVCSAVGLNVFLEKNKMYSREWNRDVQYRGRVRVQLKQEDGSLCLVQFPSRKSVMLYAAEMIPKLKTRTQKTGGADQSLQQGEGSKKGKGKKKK

Tests used:
Experiment in all cases: log2 fold change, soluble protein after heating vs DMSO (PISA); higher = thermal stabilisation; K562 lysate, 10 uM; active = over 0.2 and 3.5 SD of the protein, either way, in both replicates (recomputed)
[1] = compound: C#Cc1cccc(Nc2ncnc3cc(OCCOC)c(OCCOC)cc23)c1 [erlotinib]
Outline: (§1)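 K562 pellets were dounce-homogenised in PBS pH 7.4 containing 1 mM MgCl2, and the crude extract, at 1 mg/mL protein, was exposed to 10 μM compound for 30 min. Aliquots were heated for 3 min across 48°C-58°C, pooled, brought to 0.5% NP-40 at 4°C and spun at 21,000xg for 90 min, with the supernatant taken as soluble protein. TMTpro 16plex LC-MS/MS with equalised channel sums quantified that protein. Values are log-two fold changes in thermal stability relative to solvent controls, taken from duplicates.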

[2] = compound: C/C(=N\NC(=O)C1=CC(=CC=C1)S(=O)(=O)N2CCOCC2)/C3=C(C=CC(=C3)Cl)O
Outline: as §1

[3] = compound: C1=CC(=CC=C1C2=NC3=C(N2)C=C(C=C3)C(=O)N)OC4=CC=C(C=C4)Cl
Outline: as §1

[4] = compound: C1=CC2=C(C=CC(=C2)/C=C\3/C(=O)NC(=NCC4=CC=CS4)S3)N=C1
Outline: as §1

[5] = compound: C1=CC2=NC=CN=C2C=C1/C=C/3\C(=O)NC(=O)S3
Outline: as §1

[6] = compound: C1=CC=C(C=C1)C2=NC(=C(N2)C3=CC=NC=C3)C4=CC(=C(C=C4)Cl)O
Outline: as §1

[7] = compound: C1=CC=C2C(=C1)C3=NNC4=CC=CC(=C43)C2=O
Outline: as §1

[8] = compound: C1CCN(C1)C(=O)NC2=CC=CC(=C2)NC3=NC=C(C(=N3)NCCC4=CN=CN4)Br
Outline: as §1

[9] = compound: C1CN(CCC1(CC2=CC=C(C=C2)Cl)N)C3=NC=NC4=C3C=CN4
Outline: as §1

[10] = compound: C1COCCN1CCN2C3=CC=CC=C3N=C2NC(=O)C4=CC(=CC=C4)[N+](=O)[O-] [IRAK-1-4 Inhibitor I]
Outline: as §1

Measured: log2 fold change

SPR (UniProt P35270)
active: [6] 1.04
inactive: [1] -0.027 | [2] 0.014 | [3] -0.021 | [4] 0.056 | [5] 0.049 | [7] 0.013 | [8] 0.008 | [9] -0.041 | [10] 0.049

SPTAN1 (UniProt Q13813)
inactive: [1] -0.014 | [2] 0.019 | [3] 0.001 | [4] -0.002 | [5] -0.005 | [6] 0.009 | [7] -0.012 | [8] -0.013 | [9] -0.006 | [10] -0.003

STAM2 (UniProt O75886)
inactive: [1] -0.027 | [2] 0.17 | [3] 0.002 | [4] -0.013 | [5] -0.002 | [6] 0.045 | [7] 0.033 | [8] -0.028 | [9] 0.006 | [10] -0.044

SRRT (UniProt Q9BXP5)
inactive: [1] 0.039 | [2] 0.023 | [3] -0.005 | [4] 0.041 | [5] 0.004 | [6] 0.022 | [7] -0.03 | [8] -0.005 | [9] -0.011 | [10] 0.004

SPINDOC (UniProt Q9BUA3)
inactive: [1] -0.011 | [2] -0.171 | [3] 0.022 | [4] -0.153 | [5] -0.057 | [6] 0.062 | [7] -0.046 | [8] -0.102 | [9] -0.063 | [10] 0.033

SPG7 (UniProt Q9UQ90)
inactive: [1] 0.184 | [2] -0.136 | [3] -0.046 | [4] 0.011 | [5] -0.04 | [6] 0.085 | [7] 0.047 | [8] 0.009 | [9] 0.044 | [10] -0.16

SRSF6 (UniProt Q13247)
inactive: [1] 0.018 | [2] -0.216 | [3] -0.004 | [4] 0 | [5] -0.013 | [6] 0.008 | [7] 0.017 | [8] 0.126 | [9] -0.036 | [10] -0.017

STAT3 isoform 2 (UniProt P40763)
inactive: [1] 0.002 | [2] 0.002 | [3] -0.003 | [4] -0.005 | [5] 0.009 | [6] -0.013 | [7] -0.012 | [8] -0.012 | [9] 0.034 | [10] -0.016

SSB (UniProt P05455)
inactive: [1] -0.008 | [2] 0.007 | [3] -0.014 | [4] -0.025 | [5] -0.009 | [6] 0.001 | [7] -0.015 | [8] 0.013 | [9] 0.002 | [10] -0.011

Two entries picked at random from the list so far:
SPG7 (UniProt Q9UQ90)
inactive: [1] 0.184 | [2] -0.136 | [3] -0.046 | [4] 0.011 | [5] -0.04 | [6] 0.085 | [7] 0.047 | [8] 0.009 | [9] 0.044 | [10] -0.16

SSB (UniProt P05455)
inactive: [1] -0.008 | [2] 0.007 | [3] -0.014 | [4] -0.025 | [5] -0.009 | [6] 0.001 | [7] -0.015 | [8] 0.013 | [9] 0.002 | [10] -0.011

Additional records

SPATA5 (UniProt Q8NB90)
inactive: [1] 0.04 | [2] 0.025 | [3] -0.006 | [4] 0.025 | [5] -0.042 | [6] 0.042 | [7] 0.015 | [8] 0.017 | [9] 0.017 | [10] 0.016

STAT1 (UniProt P42224)
inactive: [1] 0.022 | [2] 0.018 | [3] -0.014 | [4] -0.009 | [5] 0.02 | [6] 0.022 | [7] -0.046 | [8] -0.014 | [9] 0.002 | [10] 0.004

SRD5A3 (UniProt Q9H8P0)
inactive: [1] -0.166 | [2] 0.001 | [3] -0.164 | [4] 0.146 | [5] 0.103 | [6] -0.064 | [7] 0.246 | [8] 0.023 | [9] 0.039 | [10] -0.047

STAM (UniProt Q92783)
inactive: [1] -0.026 | [2] 0.026 | [3] 0.011 | [4] 0 | [5] -0.004 | [6] 0.042 | [7] 0.05 | [8] 0.024 | [9] 0.007 | [10] 0.03

SRSF8 (UniProt Q9BRL6)
inactive: [1] -0.021 | [2] 0.012 | [3] 0.005 | [4] -0.01 | [5] -0.017 | [6] -0.001 | [7] -0.043 | [8] 0.076 | [9] -0.007 | [10] -0.026

SSU72 (UniProt Q9NP77)
inactive: [1] -0.067 | [2] 0.057 | [3] -0.071 | [4] -0.064 | [5] -0.003 | [6] 0.07 | [7] 0.005 | [8] 0.029 | [9] 0 | [10] 0.001

SPEN (UniProt Q96T58)
inactive: [1] -0.031 | [2] -0.655 | [3] 0.031 | [4] 0.004 | [5] 0.101 | [6] 0.006 | [7] 0.037 | [8] 0.001 | [9] -0.035 | [10] -0.084

STARD3 isoform 3 (UniProt Q14849)
inactive: [1] -0.014 | [2] 0.104 | [3] -0.022 | [4] -0.085 | [5] -0.078 | [6] -0.003 | [7] 0.107 | [8] -0.085 | [9] 0.133 | [10] 0.047

SSBP1 (UniProt Q04837)
inactive: [1] 0.02 | [2] -0.05 | [3] 0.031 | [4] 0.022 | [5] 0.007 | [6] -0.004 | [7] 0.025 | [8] 0.031 | [9] 0.018 | [10] -0.006

SREBF2 (UniProt Q12772)
inactive: [1] 0.025 | [2] 0.131 | [3] -0.047 | [4] -0.075 | [5] -0.008 | [6] 0.014 | [7] -0.081 | [8] -0.048 | [9] 0.215 | [10] -0.036

SRA1 (UniProt Q9HD15)
inactive: [1] -0.002 | [2] -0.025 | [3] 0.001 | [4] -0.006 | [5] 0.001 | [6] -0.025 | [7] 0.032 | [8] -0.004 | [9] 0.04 | [10] -0.001

SRM (UniProt P19623)
inactive: [1] -0.006 | [2] 0.039 | [3] 0.017 | [4] -0.001 | [5] 0.014 | [6] 0.004 | [7] -0.003 | [8] 0.017 | [9] 0.027 | [10] 0.007

SPATA5L1 (UniProt Q9BVQ7)
inactive: [1] 0.09 | [2] -0.053 | [3] -0.017 | [4] 0.044 | [5] 0.004 | [6] 0.069 | [7] 0.01 | [8] 0.027 | [9] 0.032 | [10] 0.015

STAT3 isoform 3 (UniProt P40763)
inactive: [1] 0.042 | [2] -0.312 | [3] -0.191 | [4] -0.008 | [5] -0.012 | [6] -0.036 | [7] 0.144 | [8] 0.022 | [9] -0.152 | [10] -0.092

ST6GAL1 (UniProt P15907)
inactive: [1] -0.052 | [2] -0.039 | [3] -0.072 | [4] 0.054 | [5] -0.004 | [6] 0.014 | [7] -0.014 | [8] -0.041 | [9] 0.032 | [10] 0.008

SREK1 isoform 2 (UniProt Q8WXA9)
inactive: [1] 0.024 | [2] -0.07 | [3] -0.019 | [4] -0.044 | [5] -0.037 | [6] -0.014 | [7] -0.005 | [8] -0.017 | [9] -0.032 | [10] -0.014

SRFBP1 (UniProt Q8NEF9)
inactive: [1] -0.033 | [2] 0.031 | [3] 0.07 | [4] -0.001 | [5] 0.015 | [6] 0.019 | [7] 0.036 | [8] 0.008 | [9] -0.005 | [10] 0.049

STIL isoform 2 (UniProt Q15468)
inactive: [1] 0.042 | [2] 0.09 | [3] 0.021 | [4] -0.048 | [5] -0.015 | [6] 0.037 | [7] 0.052 | [8] -0.114 | [9] -0.036 | [10] -0.031

SRBD1 (UniProt Q8N5C6)
inactive: [1] 0.048 | [2] 0.263 | [3] 0.072 | [4] -0.032 | [5] -0.017 | [6] 0.016 | [7] -0.217 | [8] -0.014 | [9] -0.023 | [10] -0.016

SPPL2A (UniProt Q8TCT8)
inactive: [1] 0.005 | [2] -0.007 | [3] 0.118 | [4] -0.104 | [5] -0.011 | [6] -0.07 | [7] -0.141 | [8] -0.082 | [10] 0.014
active: [9] -0.644

SRP19 (UniProt P09132)
inactive: [1] 0.011 | [2] -0.298 | [3] -0.007 | [4] -0.074 | [5] -0.012 | [6] 0.008 | [7] 0.077 | [8] -0.008 | [9] 0.022 | [10] 0.027
